Data reported in paper PMC5085214.
Results are given in words; binding and its absence hold for the method and conditions named. In cells and extracts the contact can be indirect. Some entries that bind do so weakly or less than the wild type.

Biological target: p53 (human (endogenous in T24)) (UniProt P04637)
Test: co-IP; endogenous JNK2 and p53 in T24 cells; lysis buffer 50 mM Tris-HCl pH 7.5, 150 mM NaCl, 1% Nonidet P-40, 0.5% sodium deoxycholate; antibody and protein-G beads at 4°C overnight; which protein was precipitated is not told

binding: binds
Substance: c-Jun N-terminal kinase-2 (JNK2) (from UniProt P45984 1-424)
